These are yes or no findings as the source states them, for the method shown.
Biological target: mouse lactate dehydrogenase D (mLDHD), N-terminal truncated, residues 22-484 (mouse) (UniProt Q7TNG8)
Assay: SEC; purified mLDHD on Superdex 200 10/300; storage buffer 50 mM Tris-HCl pH 7.4, 200 mM NaCl, 1 mM EDTA; both purified

B1: mouse lactate dehydrogenase D (mLDHD), N-terminal truncated, residues 22-484 (enzyme, UniProt Q7TNG8 22-484)
chain: GSQGGLSQDFVEALKAVVGSPHVSTASAVREQHGHDESMHRCQPPDAVVWPQNVDQVSRVASLCYNQGVPIIPFGTGTGVEGGVCAVQGGVCINLTHMDQITELNTEDFSVVVEPGVTRKALNTHLRDSGLWFPVDPGADASLCGMAATGASGTNAVRYGTMRDNVINLEVVLPDGRLLHTAGRGRHYRKSAAGYNLTGLFVGSEGTLGIITSTTLRLHPAPEATVAATCAFPSVQAAVDSTVQILQAAVPVARIEFLDDVMMDACNRHSKLNCPVAPTLFLEFHGSQQTLAEQLQRTEAITQDNGGSHFSWAKEAEKRNELWAARHNAWYAALALSPGSKAYSTDVCVPISRLPEILVETKEEIKASKLTGAIVGHVGDGNFHCILLVDPDDAEEQRRVKAFAENLGRRALALGGTCTGEHGIGLGKRQLLQEEVGPVGVETMRQLKNTLDPRGLMNPGKVL
In the case of B1, the binding is reported as “no binding”.
